According to PubChem BioAssay AID330 (DTP/NCI, 2004):
The list is a part of this screen's results and no random one: it gathers tests that were run many times, whatever their T/C, doses with no T/C, and many T/C values between a quarter and a half above the control. Other doses and runs of a compound stand elsewhere. T/C is the treated group as % of the vehicle group. Some doses have a count of surviving animals in place of a T/C: the source holds a T/C of zero for them, seemingly a mark for toxic or unscored doses. Some doses without a T/C left all or most animals alive at the check, yet need not have been tolerated: the source hardly ever lists a survival T/C far under the control, and the zero likely stands for such cases as well. Survivors were counted at the toxicity check, usually on the fifth day, unless a day is given; later deaths do not show. Schedules are NCI's codes, read here as Q, the interval in days (D) or hours (H), X, the number of doses. Some entries hold several experiments; the values are given in rising order. Where survival is the endpoint, the PubChem record calls one and a half times the control and up active, and a quarter to a half above the control has no call in these data; cut-offs in other NCI protocols can differ. Some T/C values carry the count of animals alive at the toxicity check (mostly the fifth day); where none is given, no animal had died by that day.

System: P388 leukemia ip, CD2F1 mice, survival T/C
Assay: NCI In Vivo Anticancer Drug Screen. Data for tumor model P388 Leukemia (intraperitoneal) in CD2F1 (CDF1) mice
Settings: T/C endpoint: median survival time, higher T/C = longer survival
[1] = dose: 100.0 mg/kg/injection, schedule: Q01DX009 (ip), vehicle: saline
[2] = dose: 50.0 mg/kg/injection, schedule: Q01DX005 (ip), vehicle: saline with Tween-80
[3] = dose: 200.0 mg/kg/injection, schedule: Q01DX005 (ip), vehicle: saline with Tween-80
[4] = dose: 200.0 mg/kg/injection, schedule: Q01DX009 (ip), vehicle: saline
[5] = dose: 240.0 mg/kg/injection, schedule: Q01DX005 (ip), vehicle: saline with Tween-80
[6] = dose: 25.0 mg/kg/injection, schedule: Q04DX003 (ip), vehicle: saline with Tween-80
[7] = dose: 50.0 mg/kg/injection, schedule: Q04DX003 (ip), vehicle: saline with Tween-80
[8] = dose: 100.0 mg/kg/injection, schedule: Q04DX003 (ip), vehicle: saline
[9] = dose: 200.0 mg/kg/injection, schedule: Q04DX003 (ip), vehicle: saline
[10] = dose: 400.0 mg/kg/injection, schedule: Q04DX003 (ip), vehicle: saline
[11] = dose: 100.0 mg/kg/injection, schedule: Q01DX009 (ip), vehicle: saline with Tween-80
[12] = dose: 200.0 mg/kg/injection, schedule: Q01DX009 (ip), vehicle: saline with Tween-80
[13] = dose: 25.0 mg/kg/injection, schedule: Q01DX009 (ip), vehicle: saline with Tween-80
[14] = dose: 50.0 mg/kg/injection, schedule: Q01DX009 (ip), vehicle: saline with Tween-80

What does the source list for `CC(=O)Cc1c(-c2ccccc2)nc(=S)[nH]c1C`?
survivor count (dose: 50.0 mg/kg/injection, schedule: Q01DX009 (ip), vehicle: saline): 6 of 6; survivor count [1]: 6 of 6

What does the source list for `CCOC(=O)c1cc(-c2cc(C(=O)OCC)c3ccccc3n2)nc2ccccc12`?
survivor count [2]: 6 of 6; survivor count [3]: 6 of 6

How did the survivor count [4] turn out when `Nc1c(CC(=O)O)cccc1C(=O)c1ccccc1` was run?
The survivor count was 4 of 6.

How did the T/C (dose: 3.13 mg/kg/injection, schedule: Q01DX009 (ip), vehicle: water) turn out when `COc1cccc2c1C(=O)c1c(O)c3c(c(O)c1C2=O)C[C@@](O)(C(=O)CO)C[C@@H]3OC1CC(NC(C)=O)C(O)C(C)O1` (stereo not given in full) was run?
Its T/C is 136 % of control.

What about the T/C (dose: 6.25 mg/kg/injection, schedule: Q01DX009 (ip), vehicle: water) of the same molecule?
Its T/C is 129 and 142 % of control.

What about the T/C (dose: 12.5 mg/kg/injection, schedule: Q01DX009 (ip), vehicle: water) of the same molecule?
The T/C was 140 % of control.

And the T/C (dose: 25.0 mg/kg/injection, schedule: Q01DX009 (ip), vehicle: water)?
Its T/C is 144 % of control.

What about the survivor count (dose: 400.0 mg/kg/injection, schedule: Q01DX009 (ip), vehicle: other) of the same molecule?
The survivor count was 6 of 6.

With `CC(C)c1ccc(C[n+]2ccccc2/C=N/O)cc1` as the molecule, how does the survivor count [2] read?
The survivor count was 2 of 5.

What about the survivor count (dose: 100.0 mg/kg/injection, schedule: Q01DX005 (ip), vehicle: saline with Tween-80) of the same molecule?
Its survivor count is 0 of 5.

What about the survivor count [3] of the same molecule?
The survivor count was 0 of 5.

With `c1ccc2c(c1)ccc1c2c[n+](CCCCCCCC[n+]2cc3c4ccccc4ccc3c3ccccc32)c2ccccc12` as the molecule, how does the T/C (dose: 0.39 mg/kg/injection, schedule: Q01DX009 (ip), vehicle: distilled water + Tween-80) read?
Its T/C is 149 % of control.

Which survivor count [1] does the source give for `CCc1c(C#N)c(S)[nH]c(=S)c1C#N` here?
The survivor count was 3 of 6.

And the survivor count [4]?
The survivor count was 0 of 6.

Which survivor count (dose: 50.0 mg/kg/injection, schedule: Q01DX005 (ip), vehicle: saline) does the source give for `CCCCN(CC(O)CNc1cc(OC)cc2cccnc12)C(C)CC` (stereo not given) here?
Its survivor count is 1 of 6.

What about the survivor count (dose: 100.0 mg/kg/injection, schedule: Q01DX005 (ip), vehicle: saline) of the same molecule?
The survivor count was 0 of 6.

For `Cc1ccc(S(=O)(=O)N(CCCc2c(-c3ccccc3)nc(N)[nH]c2=O)c2ccccc2)cc1`, which survivor count (dose: 30.0 mg/kg/injection, schedule: Q01DX005 (ip), vehicle: saline with Tween-80) is on record?
Its survivor count is 6 of 6.

And the survivor count (dose: 120.0 mg/kg/injection, schedule: Q01DX005 (ip), vehicle: saline with Tween-80)?
Its survivor count is 6 of 6.

And the survivor count [5]?
Its survivor count is 6 of 6.

For `NNC(=O)CNc1ccccc1Br`, which survivor count (dose: 240.0 mg/kg/injection, schedule: Q01DX005 (ip), vehicle: Klucel (hydroxypropylcellulose) (HPC)) is on record?
Its survivor count is 0 of 6.

Which survivor count (dose: 192.0 mg/kg/injection, schedule: Q01DX009 (ip), vehicle: Klucel (hydroxypropylcellulose) (HPC)) does the source give for `COc1ccc(-c2c3c(cc4cc5c(cc24)OCO5)C(=O)OC3)cc1OC` here?
The survivor count was 5 of 5.

Which results are given for `O=C(Nc1ccc(NC(=O)c2ccc(C3=NCCCN3)cc2)cc1)c1ccc(C2=NCCCN2)cc1`?
T/C [6]: 131 % of control; T/C (dose: 33.0 mg/kg/injection, schedule: Q04DX003 (ip), vehicle: saline with Tween-80): 141 % of control; T/C [7]: 145 % of control; survivor count [7]: 1 of 6; survivor count (dose: 75.0 mg/kg/injection, schedule: Q04DX003 (ip), vehicle: saline with Tween-80): 3 of 6; survivor count [8]: 4 of 6; survivor count [9]: 1 of 6; survivor count [10]: 0 of 6

`O=C1C=CC(=O)C=C1` was tested. Which survivor count (dose: 12.5 mg/kg/injection, schedule: Q04DX003 (ip), vehicle: saline with Tween-80) did it give?
The survivor count was 0 of 3 and 3 of 6.

And the survivor count [6]?
The survivor count was 0 of 3.

And the survivor count [7]?
The survivor count was 0 of 3.

And the survivor count (dose: 100.0 mg/kg/injection, schedule: Q04DX003 (ip), vehicle: saline with Tween-80)?
Its survivor count is 0 of 3.

What about the survivor count (dose: 200.0 mg/kg/injection, schedule: Q04DX003 (ip), vehicle: saline with Tween-80) of the same molecule?
Its survivor count is 0 of 3.

Which survivor count [4] does the source give for `Cc1cc(O)c2c(O)c(-c3ccc4cc(C)cc(O)c4c3O)ccc2c1` here?
The survivor count was 4 of 6.

Which survivor count (dose: 200.0 mg/kg/injection, schedule: Q01DX005 (ip), vehicle: Klucel (hydroxypropylcellulose) (HPC)) does the source give for `CC1CCN(CC(O)C(C)(C)Oc2ccc(-c3ccccc3)cc2)CC1` (stereo not given) here?
Its survivor count is 0 of 6.

For `CC(=O)Nc1c(Cl)c(Cl)c2c(c1Cl)Cc1cc(Cl)c(Cl)cc1-2`, which survivor count [11] is on record?
The survivor count was 3 of 6.

And the survivor count [12]?
The survivor count was 2 of 6.

And the survivor count (dose: 400.0 mg/kg/injection, schedule: Q01DX009 (ip), vehicle: saline with Tween-80)?
The survivor count was 0 of 6.

`O=c1[nH]cc(NS(=O)(=O)c2ccccc2)c(=O)[nH]1` was tested. Which survivor count [5] did it give?
Its survivor count is 3 of 6.

Which T/C (dose: 1.63 micrograms/kg/injection, schedule: Q01DX005 (ip), vehicle: saline + alcohol) does the source give for `CC[C@@H](C)[C@H]([C@H](CC(=O)N1CCC[C@@H]1[C@@H](OC)[C@H](C)C(=O)N[C@H](Cc1ccccc1)c1nccs1)OC)N(C)C(=O)[C@H](NC(=O)[C@@H](C(C)C)N(C)C)C(C)C` here?
The T/C was 137 % of control.

What about the T/C (dose: 3.25 micrograms/kg/injection, schedule: Q01DX005 (ip), vehicle: saline + alcohol) of the same molecule?
Its T/C is 146 % of control.

And the survivor count (dose: 13.0 micrograms/kg/injection, schedule: Q01DX005 (ip), vehicle: saline + alcohol)?
The survivor count was 6 of 6.

And the survivor count (dose: 26.0 micrograms/kg/injection, schedule: Q01DX005 (ip), vehicle: saline + alcohol)?
The survivor count was 1 of 6.

What about the survivor count (dose: 27.0 micrograms/kg/injection, schedule: Q01DX009 (ip), vehicle: saline + alcohol) of the same molecule?
Its survivor count is 4 of 4.

What about the survivor count (dose: 54.0 micrograms/kg/injection, schedule: Q01DX009 (ip), vehicle: saline + alcohol) of the same molecule?
Its survivor count is 4 of 4.

What about the survivor count (dose: 108.0 micrograms/kg/injection, schedule: Q01DX009 (ip), vehicle: saline + alcohol) of the same molecule?
The survivor count was 1 of 4.

Which survivor count (dose: 150.0 mg/kg/injection, schedule: Q01DX009 (ip), vehicle: saline with Tween-80) does the source give for `O=C(c1ccc(F)cc1)c1no[n+]([O-])c1C(=O)c1ccc(F)cc1` here?
The survivor count was 2 of 6.

Which T/C (dose: 6.25 mg/kg/injection, schedule: Q01DX009 (ip), vehicle: saline with Tween-80) does the source give for `Cc1c(-c2ccccc2)ccnc1/C=N/NC(=S)Nc1ccc(N(C)C)cc1` here?
The T/C was 126 % of control.

What about the T/C (dose: 12.5 mg/kg/injection, schedule: Q01DX009 (ip), vehicle: saline with Tween-80) of the same molecule?
The T/C was 128 [5 of 6 alive] and 131 % of control.

And the T/C [13]?
The T/C was 134 % of control.

What about the survivor count [13] of the same molecule?
Its survivor count is 6 of 6.

What about the survivor count [14] of the same molecule?
The survivor count was 0 of 6.

And the survivor count [11]?
The survivor count was 0 of 6.

What about the survivor count [12] of the same molecule?
Its survivor count is 0 of 6.

Which T/C (dose: 12.5 mg/kg/injection, schedule: Q04DX003 (ip), vehicle: saline) does the source give for `COCCOP(=O)(N1CC1)N1CC1` here?
Its T/C is 131 % of control.

What about the T/C (dose: 25.0 mg/kg/injection, schedule: Q04DX003 (ip), vehicle: saline) of the same molecule?
The T/C was 131 % of control.

What about the survivor count [1] of the same molecule?
The survivor count was 6 of 6.

What about the T/C [8] of the same molecule?
The T/C was 127 % of control.

Which results are given for `COC(=O)C[CH2][Sn]([Cl])([Cl])[Cl]`?
survivor count [9]: 6 of 6; survivor count [10]: 0 of 6

`O=C(CI)NCCNc1cccc2c(S(=O)(=O)O)cccc12` was tested. Which survivor count [14] did it give?
The survivor count was 5 of 6.

And the survivor count [12]?
The survivor count was 4 of 6.

How did the survivor count (dose: 50.0 mg/kg/injection, schedule: Q01DX001 (ip), vehicle: saline with Tween-80) turn out when `C=C(CC(O)(C(F)(F)F)C(F)(F)F)CC(O)(C(F)(F)F)C(F)(F)F` was run?
The survivor count was 0 of 5.

And the survivor count (dose: 100.0 mg/kg/injection, schedule: Q01DX001 (ip), vehicle: saline with Tween-80)?
Its survivor count is 0 of 6.

What about the survivor count (dose: 200.0 mg/kg/injection, schedule: Q01DX001 (ip), vehicle: saline with Tween-80) of the same molecule?
Its survivor count is 0 of 6.

And the survivor count (dose: 400.0 mg/kg/injection, schedule: Q01DX001 (ip), vehicle: saline with Tween-80)?
The survivor count was 0 of 6.

`CN(C)CCCNC(=O)c1ccc2c(c1)C(=O)c1ccccc1C2=O` was tested. Which survivor count (dose: 400.0 mg/kg/injection, schedule: Q04DX003 (ip), vehicle: water) did it give?
Its survivor count is 0 of 6.
